Measured values taken from article PMC4066787.
These are yes or no findings as the source states them, for the method shown. In cells and extracts the contact can be indirect. A yes stands for co-enrichment or nearness to the bait. Other partners may have been found.

By UniProt entry, the sequences of proteins in these tests, tags left out.
UniProt O09106: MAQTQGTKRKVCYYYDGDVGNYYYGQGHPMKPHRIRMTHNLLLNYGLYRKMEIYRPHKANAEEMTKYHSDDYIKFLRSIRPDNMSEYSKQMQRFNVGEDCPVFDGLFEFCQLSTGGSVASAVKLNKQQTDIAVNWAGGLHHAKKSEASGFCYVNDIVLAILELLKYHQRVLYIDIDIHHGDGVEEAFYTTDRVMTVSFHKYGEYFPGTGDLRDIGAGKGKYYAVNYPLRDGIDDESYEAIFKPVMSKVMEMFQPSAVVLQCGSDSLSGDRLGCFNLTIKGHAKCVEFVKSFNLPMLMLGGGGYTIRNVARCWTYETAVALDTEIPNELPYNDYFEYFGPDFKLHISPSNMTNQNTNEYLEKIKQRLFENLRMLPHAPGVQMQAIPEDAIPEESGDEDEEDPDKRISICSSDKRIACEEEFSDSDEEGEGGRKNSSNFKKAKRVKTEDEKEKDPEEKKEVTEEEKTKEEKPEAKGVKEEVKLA
UniProt Q8VHR5: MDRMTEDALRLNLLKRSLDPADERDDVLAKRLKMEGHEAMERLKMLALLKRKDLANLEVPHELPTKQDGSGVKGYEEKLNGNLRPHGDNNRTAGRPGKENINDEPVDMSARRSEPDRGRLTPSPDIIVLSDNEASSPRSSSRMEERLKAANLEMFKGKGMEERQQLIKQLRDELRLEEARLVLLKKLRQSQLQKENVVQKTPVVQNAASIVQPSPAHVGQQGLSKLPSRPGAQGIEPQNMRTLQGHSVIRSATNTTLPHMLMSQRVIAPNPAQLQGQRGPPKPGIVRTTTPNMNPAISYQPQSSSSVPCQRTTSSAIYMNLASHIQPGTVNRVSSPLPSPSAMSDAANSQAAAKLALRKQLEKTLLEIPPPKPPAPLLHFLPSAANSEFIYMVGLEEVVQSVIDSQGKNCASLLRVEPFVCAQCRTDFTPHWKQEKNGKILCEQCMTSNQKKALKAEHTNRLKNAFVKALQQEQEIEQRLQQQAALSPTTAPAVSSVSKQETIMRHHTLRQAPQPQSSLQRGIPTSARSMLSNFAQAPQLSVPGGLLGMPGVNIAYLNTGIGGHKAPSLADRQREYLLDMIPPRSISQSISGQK
UniProt Q9R190: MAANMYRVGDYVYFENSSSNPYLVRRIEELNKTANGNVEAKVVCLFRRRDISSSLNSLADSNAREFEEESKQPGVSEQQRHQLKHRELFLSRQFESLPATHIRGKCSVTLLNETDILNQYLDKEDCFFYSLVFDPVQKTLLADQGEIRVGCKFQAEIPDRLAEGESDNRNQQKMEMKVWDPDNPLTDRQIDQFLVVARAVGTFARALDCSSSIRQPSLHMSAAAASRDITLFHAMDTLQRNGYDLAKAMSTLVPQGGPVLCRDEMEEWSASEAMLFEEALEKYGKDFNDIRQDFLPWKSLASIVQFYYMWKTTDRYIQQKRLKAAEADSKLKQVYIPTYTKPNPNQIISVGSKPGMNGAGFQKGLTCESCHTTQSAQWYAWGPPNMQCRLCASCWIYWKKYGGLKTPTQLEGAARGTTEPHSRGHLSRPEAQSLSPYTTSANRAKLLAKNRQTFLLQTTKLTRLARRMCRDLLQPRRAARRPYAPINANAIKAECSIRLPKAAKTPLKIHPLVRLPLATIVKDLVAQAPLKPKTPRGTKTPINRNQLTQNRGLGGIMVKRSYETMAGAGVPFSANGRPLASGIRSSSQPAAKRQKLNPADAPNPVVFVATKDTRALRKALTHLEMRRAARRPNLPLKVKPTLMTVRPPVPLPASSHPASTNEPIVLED
UniProt Q8CHY6: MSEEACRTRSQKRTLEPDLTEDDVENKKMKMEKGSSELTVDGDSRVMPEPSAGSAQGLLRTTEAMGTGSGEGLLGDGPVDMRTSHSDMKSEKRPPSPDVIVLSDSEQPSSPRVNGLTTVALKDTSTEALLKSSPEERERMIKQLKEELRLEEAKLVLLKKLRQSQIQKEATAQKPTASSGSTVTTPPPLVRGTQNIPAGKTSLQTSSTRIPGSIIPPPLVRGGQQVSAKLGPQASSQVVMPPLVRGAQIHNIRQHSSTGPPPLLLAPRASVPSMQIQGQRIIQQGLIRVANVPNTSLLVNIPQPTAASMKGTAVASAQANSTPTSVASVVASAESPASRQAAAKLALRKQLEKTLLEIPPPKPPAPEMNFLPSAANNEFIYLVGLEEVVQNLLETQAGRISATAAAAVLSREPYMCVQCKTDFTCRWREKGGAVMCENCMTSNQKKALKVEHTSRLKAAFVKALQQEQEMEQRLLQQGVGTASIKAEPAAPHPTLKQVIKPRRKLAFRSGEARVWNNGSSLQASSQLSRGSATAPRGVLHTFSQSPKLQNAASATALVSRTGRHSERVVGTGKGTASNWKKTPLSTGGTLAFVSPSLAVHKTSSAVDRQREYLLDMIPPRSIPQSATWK
UniProt Q8K4B0: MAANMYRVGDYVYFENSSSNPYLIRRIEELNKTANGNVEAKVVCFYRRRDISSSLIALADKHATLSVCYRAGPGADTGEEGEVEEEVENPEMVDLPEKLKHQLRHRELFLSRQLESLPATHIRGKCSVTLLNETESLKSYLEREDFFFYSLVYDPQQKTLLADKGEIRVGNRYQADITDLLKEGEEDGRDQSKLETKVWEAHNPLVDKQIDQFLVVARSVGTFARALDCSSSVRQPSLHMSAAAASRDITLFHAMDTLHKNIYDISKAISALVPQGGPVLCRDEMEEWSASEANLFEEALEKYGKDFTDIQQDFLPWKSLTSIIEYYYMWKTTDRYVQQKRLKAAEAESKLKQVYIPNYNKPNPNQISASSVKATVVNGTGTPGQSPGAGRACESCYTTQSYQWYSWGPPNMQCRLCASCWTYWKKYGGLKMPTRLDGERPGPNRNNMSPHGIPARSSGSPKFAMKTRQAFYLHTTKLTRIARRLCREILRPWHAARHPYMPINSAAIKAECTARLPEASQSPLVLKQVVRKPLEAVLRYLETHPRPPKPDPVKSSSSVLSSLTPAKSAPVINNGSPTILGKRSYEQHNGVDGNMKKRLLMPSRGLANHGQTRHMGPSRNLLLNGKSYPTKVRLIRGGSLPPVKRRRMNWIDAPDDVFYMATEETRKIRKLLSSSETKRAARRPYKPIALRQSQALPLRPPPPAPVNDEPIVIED
UniProt Q924K8: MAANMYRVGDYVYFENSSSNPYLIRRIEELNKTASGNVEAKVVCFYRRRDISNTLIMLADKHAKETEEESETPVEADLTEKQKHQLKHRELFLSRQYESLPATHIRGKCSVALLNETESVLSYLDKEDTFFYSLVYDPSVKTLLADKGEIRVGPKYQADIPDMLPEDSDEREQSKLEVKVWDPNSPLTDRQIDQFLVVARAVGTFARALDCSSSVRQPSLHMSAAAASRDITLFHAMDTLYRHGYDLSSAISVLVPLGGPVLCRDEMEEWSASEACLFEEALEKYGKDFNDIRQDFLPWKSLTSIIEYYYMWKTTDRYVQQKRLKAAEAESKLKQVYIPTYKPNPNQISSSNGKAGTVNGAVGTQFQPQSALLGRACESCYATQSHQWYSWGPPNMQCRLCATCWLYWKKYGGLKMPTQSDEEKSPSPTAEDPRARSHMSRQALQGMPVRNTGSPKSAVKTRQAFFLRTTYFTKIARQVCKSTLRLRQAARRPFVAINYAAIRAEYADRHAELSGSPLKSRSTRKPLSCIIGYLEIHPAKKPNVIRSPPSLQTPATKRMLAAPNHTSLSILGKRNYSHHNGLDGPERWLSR

molecular target: histone deacetylase protein HDAC1 (mouse (endogenous in R1 ESCs)) (UniProt O09106); experiment: affinity purification with mass spectrometry; two-step IP-iPOND in native (non-fixative) conditions: sonicated nuclear extracts (about mononucleosome size) of ESCs pulsed 10 min with EdU, immunoprecipitated with goat anti-HDAC1 antibody, eluted with competitor peptide, re-purified on streptavidin magnetic beads via biotin-EdU nascent DNA; high-resolution mass spectrometry

Row | Substance | binding
1 | GATAD2B (from UniProt Q8VHR5 1-594) | binds
2 | metastasis-associated gene 2 protein (MTA2) (from UniProt Q9R190 1-668) | binds

Now from value to substance:

Row | binding | Substance
3 | binds | GATA zinc finger domain-containing protein 2A (GATAD2A) (from UniProt Q8CHY6 1-629)
4 | binds | metastasis-associated gene 1 protein (MTA1) (from UniProt Q8K4B0 1-715)
5 | binds | metastasis-associated gene 3 protein (MTA3) (from UniProt Q924K8 1-591)
